Hit rate of the full screen: of about 73,000 compounds, about 1,800 (2.5%) were called active. Another 13% or so got no clear call; they are omitted. The call rests on the fitted dose curve; in most records, active means well fitted activation curve with a large enough effect; inconclusive means small, poorly fitted or top-dose-only effect; inactive means no such curve, though single readings can be large or run the other way. Only a part is listed here, and it is no random draw. The source gives no active or inactive call for entries shown without one. A structure can be active in one record and inactive in another.
Potency means the concentration at half of the fitted maximal effect.

A short description of this test: qHTS Assay for Agonists of the Thyroid Stimulating Hormone Receptor: Activators of Intracellular cAMP Concentrations in Parental HEK 293. Further: nearly all actives have a fitted effect of over 55% in size. On activation: % of control where 0% means no effect. The settings on record: parental HEK293 CNG cAMP sensor, membrane potential fluorescence; activation: at 57.1 µM (top of the series). The source says:
NIH Chemical Genomics Center [NCGC]
NIH Molecular Libraries Screening Centers Network [MLSCN]
PI Name: Dr. Marvin Gershengorn
This cell based assay utilized a cyclic nucleotide gated ion channel (CNG) as a biosensor for cAMP induction. HEK 293 cells stably expressing the modified CNG were purchased from BD biosciences (http://www.atto.com/products/actone/features_benefits.shtml) . Stimulation of cAMP production causes the CNG to open and subsequent membrane depolarization to occur. A fluorescent membrane potential dye (BD biosciences) was utilized to detect cAMP stimulation in cells.
The cells were maintained in DMEM medium (Invitrogen) containing 10 % FBS (Hyclone), 100 units/ml Penicillin, 100 ug/ml Streptomycin (Invitrogen), and 250 ug/ml Geneticin (Invitrogen) and 1 ug/ml Puromycin (Invitrogen) at 37C in 5% CO2. This assay was used as a counterscreen to "qHTS Assay for Agonists of the Thyroid Stimulating Hormone Receptor", to control for compounds signaling through endogenous receptors and other targets of HEK 293 cells.
NCGC Assay Protocol Summary:
High Throughput Screening. Freshly passaged cells were dispensed into 1536-well assay plates at 4 ul/well in DMEM containing phenol red (Invitrogen), 10% FCS (Hyclone), and 100 units/ml Penicillin, 100 ug/ml Streptomycin (Invitrogen) and incubated at 37 C with 5% CO2 for 20 to 36 hrs before the robotic screening. The screen was initiated by addition of 4 ul/well membrane potential dye containing 100 uM RO 20-1724 (Sigma Aldrich), followed by 60 min incubation at room temperature to allow for dye equilibration across the cell membrane. 23 nl/well compound or control was then added to the assay plates, which were incubated for additional 30 min before reading a Envision fluorescence plate reader (Perkin Elmer) in bottom-read mode for fluorescence intensity (emission at 590 nm).
Keywords: cAMP, CNG Ion Channel, quantitative high throughput screening, qHTS, HTS, probe identification, CNG, cAMP, cyclic nucleotide gated ion channel PubChem
A general note: In qHTS, concentration-response curves come from the screen itself.
Take `COC(=O)c1ccccc1NC(=O)CS(=O)(=O)Cc1nc(-c2ccc(C)cc2)oc1C`: the activation was 94.9%.

In the case of `CCOC(=O)CSc1nc2c(sc(=S)n2Cc2ccco2)c(=O)n1-c1ccccc1`, the Potency was active: 1.26 µM.

`Cc1nc2cnc(N(C)C)nc2n(CCc2ccccc2)c1=O`: the Potency is active: 15.8 µM.

In the case of `CCOC(=O)CNC(=O)CSc1nnc(Cn2c(=O)sc3ccccc32)n1C`, the activation turned out to be 75.8%. With `O=C(CSc1n[nH]c(=O)n1C1CC1)Nc1cc(Cl)ccc1Oc1ccccc1`, the Potency is active: 12.6 µM.

Regarding `Cc1ccc(-c2nc(=S)c3c(n2Cc2ccco2)CCCC3)cc1`, the Potency was active: 2.51 µM. As for `CC(C)(C)c1ccc(S(=O)(=O)/C=C\C#N)cc1`, the “activation” value is inactive: -10.5%.

Consider `CN(CC(=O)NCc1cccs1)S(=O)(=O)c1cccc2cccnc12`, for which the activation came to 66.7%. The same measure, in the same setting: the result for `Nc1nc(N2CCOCC2)nc(N(c2ccccc2)c2ccccc2)n1` reads 69%.
